doi:10.1101/2025.05.19.654886
These are yes or no findings as the source states them, for the method shown. Binding seen in cells or lysates may run through a third protein. Some results given as binding are weak or reduced against the parent protein; the word gives no strength.

Amino acid sequences for entries named in this document (tags omitted). A change or cut given only in a name is not applied to a line headed by its entry.
UniProt P56962: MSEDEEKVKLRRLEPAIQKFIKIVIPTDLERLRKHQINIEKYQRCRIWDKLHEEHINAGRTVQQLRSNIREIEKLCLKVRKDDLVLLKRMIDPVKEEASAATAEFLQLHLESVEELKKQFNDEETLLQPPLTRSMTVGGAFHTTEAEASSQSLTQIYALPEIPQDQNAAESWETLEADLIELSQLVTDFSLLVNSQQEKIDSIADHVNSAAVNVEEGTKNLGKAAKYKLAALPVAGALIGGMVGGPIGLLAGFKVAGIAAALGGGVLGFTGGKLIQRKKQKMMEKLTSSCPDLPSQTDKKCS
UniProt O95721: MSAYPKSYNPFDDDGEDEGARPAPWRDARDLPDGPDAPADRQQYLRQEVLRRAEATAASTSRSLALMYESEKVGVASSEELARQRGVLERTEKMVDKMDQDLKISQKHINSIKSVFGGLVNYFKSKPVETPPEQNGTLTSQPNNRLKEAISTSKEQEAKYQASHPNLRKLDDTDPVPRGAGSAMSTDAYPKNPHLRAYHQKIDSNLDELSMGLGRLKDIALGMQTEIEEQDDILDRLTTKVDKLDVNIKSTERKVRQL
UniProt Q14457: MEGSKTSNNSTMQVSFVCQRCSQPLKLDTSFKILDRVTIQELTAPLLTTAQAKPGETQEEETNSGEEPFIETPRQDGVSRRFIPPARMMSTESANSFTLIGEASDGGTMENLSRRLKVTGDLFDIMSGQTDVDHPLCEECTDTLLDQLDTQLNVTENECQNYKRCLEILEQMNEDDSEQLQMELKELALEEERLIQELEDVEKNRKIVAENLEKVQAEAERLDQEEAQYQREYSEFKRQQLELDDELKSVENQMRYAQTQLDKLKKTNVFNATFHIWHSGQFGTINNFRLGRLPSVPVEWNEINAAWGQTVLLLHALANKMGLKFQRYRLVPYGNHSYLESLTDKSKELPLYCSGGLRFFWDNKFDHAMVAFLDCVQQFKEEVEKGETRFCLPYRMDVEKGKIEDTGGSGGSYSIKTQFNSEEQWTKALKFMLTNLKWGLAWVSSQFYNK
UniProt Q6ZNE5: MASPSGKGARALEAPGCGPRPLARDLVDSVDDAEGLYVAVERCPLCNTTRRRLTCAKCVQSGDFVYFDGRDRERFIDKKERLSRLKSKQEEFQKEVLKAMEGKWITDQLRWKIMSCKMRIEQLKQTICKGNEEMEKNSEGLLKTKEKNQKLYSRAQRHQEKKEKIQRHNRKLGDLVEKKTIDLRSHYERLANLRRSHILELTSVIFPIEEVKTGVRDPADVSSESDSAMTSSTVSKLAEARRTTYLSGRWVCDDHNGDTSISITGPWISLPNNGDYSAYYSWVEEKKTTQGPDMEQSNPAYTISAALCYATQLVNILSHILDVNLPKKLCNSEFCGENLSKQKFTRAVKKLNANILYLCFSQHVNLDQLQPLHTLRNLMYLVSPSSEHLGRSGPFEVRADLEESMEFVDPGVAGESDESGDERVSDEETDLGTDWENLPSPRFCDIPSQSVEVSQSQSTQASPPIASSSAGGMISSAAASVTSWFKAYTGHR
UniProt Q8TDY2: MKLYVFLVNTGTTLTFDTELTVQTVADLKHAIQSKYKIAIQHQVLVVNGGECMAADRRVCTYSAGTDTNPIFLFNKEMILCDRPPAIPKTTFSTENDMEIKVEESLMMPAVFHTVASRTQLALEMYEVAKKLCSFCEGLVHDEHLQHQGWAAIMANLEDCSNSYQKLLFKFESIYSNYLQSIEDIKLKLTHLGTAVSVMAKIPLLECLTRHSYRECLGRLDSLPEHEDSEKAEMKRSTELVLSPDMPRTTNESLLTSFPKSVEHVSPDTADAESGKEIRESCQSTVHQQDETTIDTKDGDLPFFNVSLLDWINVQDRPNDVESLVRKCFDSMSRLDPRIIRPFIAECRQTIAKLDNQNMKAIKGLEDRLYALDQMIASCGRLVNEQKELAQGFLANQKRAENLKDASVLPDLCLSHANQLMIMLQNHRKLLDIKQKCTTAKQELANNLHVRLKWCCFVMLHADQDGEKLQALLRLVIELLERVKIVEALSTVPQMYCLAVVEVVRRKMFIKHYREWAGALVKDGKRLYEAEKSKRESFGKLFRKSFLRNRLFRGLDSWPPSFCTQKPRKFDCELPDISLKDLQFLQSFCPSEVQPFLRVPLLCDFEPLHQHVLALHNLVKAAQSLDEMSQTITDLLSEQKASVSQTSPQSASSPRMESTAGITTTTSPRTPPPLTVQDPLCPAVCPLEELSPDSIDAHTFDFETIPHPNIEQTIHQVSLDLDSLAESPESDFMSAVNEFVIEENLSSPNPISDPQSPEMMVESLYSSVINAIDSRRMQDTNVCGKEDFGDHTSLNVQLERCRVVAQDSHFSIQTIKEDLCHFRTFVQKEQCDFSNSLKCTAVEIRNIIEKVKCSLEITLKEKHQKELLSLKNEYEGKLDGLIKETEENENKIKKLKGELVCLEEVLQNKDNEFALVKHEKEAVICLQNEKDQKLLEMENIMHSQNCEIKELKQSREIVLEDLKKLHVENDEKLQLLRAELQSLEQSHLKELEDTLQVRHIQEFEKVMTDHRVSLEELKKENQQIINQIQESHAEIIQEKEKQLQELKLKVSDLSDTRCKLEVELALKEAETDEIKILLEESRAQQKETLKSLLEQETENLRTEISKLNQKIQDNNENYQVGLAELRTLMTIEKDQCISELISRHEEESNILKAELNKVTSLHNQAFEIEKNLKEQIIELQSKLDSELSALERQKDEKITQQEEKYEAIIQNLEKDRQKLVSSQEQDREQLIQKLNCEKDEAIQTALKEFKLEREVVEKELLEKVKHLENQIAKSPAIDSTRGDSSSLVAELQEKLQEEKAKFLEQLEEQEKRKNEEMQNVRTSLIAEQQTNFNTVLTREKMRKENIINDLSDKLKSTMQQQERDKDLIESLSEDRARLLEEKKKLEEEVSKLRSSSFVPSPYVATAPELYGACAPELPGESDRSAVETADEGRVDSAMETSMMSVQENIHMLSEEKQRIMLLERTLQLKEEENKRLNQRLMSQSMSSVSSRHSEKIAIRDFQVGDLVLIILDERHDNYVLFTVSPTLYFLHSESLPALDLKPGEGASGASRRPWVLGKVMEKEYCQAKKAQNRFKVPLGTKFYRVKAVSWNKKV

Key:
[1] = target: GST-STX17 (amino acids 1-224) (UniProt P56962); experiment: pull-down
[2] = target: SNAP29 (purified, unmodified) (UniProt O95721); experiment: co-IP

| Substance | binding [1] | binding [2] |
| --- | --- | --- |
| Beclin1 (from UniProt Q14457 1-450) | no binding |  |
| ATG14L (endogenous) (from UniProt Q6ZNE5 1-492) |  | binds |
| GST-STX17 (amino acids 1-224) (from UniProt P56962 1-224) (domain or fragment) |  | binds |
| STX17 (endogenous) (from UniProt P56962 1-302) |  | binds |
| FIP200 (from UniProt Q8TDY2 1-1594) | no binding |  |
